Measurements as given in the supplement of paper PMC10663445.
Where a name gives a salt, the structure may show the parent alone. The list shows a part of the results. Many values rest on one well or one pass, so single values are uncertain.

system: hsa-miR-132-3p; test: miR-132-3p level in NGN2-iNs after compound treatment (TMM-normalised, ComBat batch-corrected) (batch-corrected normalised expression (arbitrary units)); higher = higher miR-132-3p expression; details: 10 µM; 24 h; human iPSC-derived NGN2 neurons (BR43)

Row | SMILES | miR-132-3p level in NGN2-iNs
1 | NC(=O)c1cccc(N)c1 [3-Aminobenzamide] | -1.52
2 | Cc1ccc(-n2nc(C(C)(C)C)cc2NC(=O)Nc2ccc(OCCN3CCOCC3)c3ccccc23)cc1 [Doramapimod (BIRB 796)] | -0.157
3 | Cc1cc(OCc2nnc(SC3CCCC3)n2-c2cccnc2)ccc1-c1ccc(S(C)(=O)=O)cc1 | -0.894
4 | CNC(=O)c1ccc(C)c(-n2c(C)cc(OCc3ccc(F)cc3F)c(Br)c2=O)c1 | -1.03
5 | CN(C)CC/C=C1/c2ccccc2COc2ccc(CC(=O)O)cc21 [Olopatadine HCl] | 0.486
6 | c1ccc(CN(CC2=NCCN2)c2ccccc2)cc1 [Antazoline HCl] | -0.309
7 | CN(C)Cc1ccc(S(=O)(=O)n2ccc(/C=C/C(=O)NO)c2)cc1 [Resminostat] | -0.876
8 | Nc1ncnc2n[nH]c(Nc3ccc(F)cc3)c12 | 0.0235
9 | CCn1cc(NC(=S)Nc2cc(Cl)ccc2OC)c(C(N)=O)n1 | -0.773
10 | CN(C)CC(c1ccc(O)cc1)C1(O)CCCCC1 (centres undefined) [Desvenlafaxine] | -0.225
11 | CN(C)CC(c1ccc(O)cc1)C1(O)CCCCC1 (centres undefined) [Desvenlafaxine Succinate] | -0.422
12 | COc1ccc(S(=O)(=O)N(CCO)c2ccccc2CN(C)C/C=C/c2ccc(Cl)cc2)cc1 [KN-93 Phosphate] | -0.39
13 | O=C(Nc1ccccc1Br)N[C@@H]1CCN(c2ccc(C(F)(F)F)cn2)C1 | -1.08
14 | O=C(c1ccccc1)c1ccc2n1CCC2C(=O)O (centres undefined) [Ketorolac] | 0.811
15 | CCN(CC)CCCC(C)Nc1nc(C)cc(Nc2ccc3nc(C)cc(N)c3c2)n1 (centres undefined) | -0.767
16 | C#CCC(Cc1cnc2nc(N)nc(N)c2n1)c1ccc(C(=O)N[C@@H](CCC(=O)O)C(=O)O)cc1 (some centres undefined) [Pralatrexate] | 0.493
17 | CC(C)(O)c1ccccc1CC[C@@H](SCC1(CC(=O)O)CC1)c1cccc(/C=C/c2ccc3ccc(Cl)cc3n2)c1 [Montelukast Sodium] | -0.0685
18 | O=C1NC(=O)C(=Cc2ccc(-c3ccc(F)cc3)o2)S1 (stereo in doubt) | 0.805
19 | OC[C@@H](O)[C@@H](O)[C@@H](O)CO [Ribitol] | 1.11
20 | O=C(Nc1ccccc1)Nc1ccc(-c2ccc(C(=O)[C@@H]3CCC[C@H]3C(=O)O)cc2)cc1 | -0.843

Row | SMILES | miR-132-3p level in NGN2-iNs
21 | COC(=O)Nc1nc2cc([S+]([O-])c3ccccc3)ccc2[nH]1 (centres undefined) [Oxfendazole] | -0.0299
22 | COc1ccccc1OCC(O)COC(N)=O (centres undefined) [Methocarbamol] | 0.266
23 | CCc1c(Cl)c(O)c(Cl)c(O)c1C(=O)O[C@H]1[C@H](O)[C@H](OC)[C@H](OC/C2=C\C=C\C[C@H](O)/C(C)=C/[C@H](CC)[C@@H](O[C@@H]3OC(C)(C)[C@@H](OC(=O)C(C)C)[C@H](O)[C@@H]3O)/C(C)=C/C(C)=C/C[C@@H]([C@@H](C)O)OC2=O)O[C@@H]1C [Fidaxomicin] | -1.25
24 | Clc1ccc(Nc2nnc(Cc3ccncc3)c3ccccc23)cc1 [Vatalanib (PTK787) 2HCl] | 0.0502
25 | Cc1cc(O)c2c(c1)C(=O)c1cc(O)cc(O)c1C2=O [Emodin] | -1.05
26 | O=C1NC(=O)/C(=C/c2cccc(C(F)(F)F)c2)S1 | -0.686
27 | CCOC(=O)[C@H](CCc1ccccc1)N[C@@H](C)C(=O)N1Cc2cc(OC)c(OC)cc2C[C@H]1C(=O)O [Moexipril HCl] | 0.431
28 | O=c1[nH]cnc2[nH]ncc12 [Allopurinol Sodium] | 0.379
29 | C[N+](C)(C)CCO.[Cl-] [Choline Chloride] | 0.942
30 | C[C@H]1COc2c(N3CCN(C)CC3)c(F)cc3c(=O)c(C(=O)O)cn1c23 [Levofloxacin] | -0.711
31 | NC(CO)C(=O)NNCc1ccc(O)c(O)c1O (centres undefined) [Benserazide HCl] | 1.67
32 | CCCC(=O)OCOC(=O)C1=C(C)NC(C)=C(C(=O)OC)C1c1cccc(Cl)c1Cl (centres undefined) [Clevidipine Butyrate] | -0.901
33 | CN1CCN(c2ccc(OC(F)(F)F)c(Nc3ncc4c(n3)-c3c(c(C(N)=O)nn3CCO)CC4)c2)CC1 | 0.838
34 | O=C(O)CSCC(=O)NC1CCSC1=O (centres undefined) [Erdosteine] | -0.964
35 | Cc1cc2c(F)c(Oc3ncnn4cc(OC[C@@H](C)O)c(C)c34)ccc2[nH]1 | -2.85
36 | COc1cc(/C=C/C(=O)CC(=O)/C=C/c2ccc(O)c(OC)c2)ccc1O [Curcumin] | 0.897
37 | CC(C)CN(C[C@@H](O)[C@H](Cc1ccccc1)NC(=O)O[C@H]1CO[C@H]2OCC[C@H]21)S(=O)(=O)c1ccc(N)cc1 [Darunavir Ethanolate] | 0.429
38 | CC(C)(O)C1CCC(C)(C2C(O)CC3(C)C4CC(OC5OC(CO)C(O)C(O)C5O)C5C(C)(C)C(OC6OCC(O)C(O)C6O)CCC56CC46CCC23C)O1 (centres undefined) [Astragaloside A] | 1.68
39 | OCCN1C[C@H](O)[C@@H](O)[C@H](O)[C@H]1CO [Miglitol] | -0.642

2 neighbouring entries from above, quoted:
Row | SMILES | miR-132-3p level in NGN2-iNs
37 | CC(C)CN(C[C@@H](O)[C@H](Cc1ccccc1)NC(=O)O[C@H]1CO[C@H]2OCC[C@H]21)S(=O)(=O)c1ccc(N)cc1 [Darunavir Ethanolate] | 0.429
38 | CC(C)(O)C1CCC(C)(C2C(O)CC3(C)C4CC(OC5OC(CO)C(O)C(O)C5O)C5C(C)(C)C(OC6OCC(O)C(O)C6O)CCC56CC46CCC23C)O1 (centres undefined) [Astragaloside A] | 1.68
